Here are results for 14 compounds from ChEMBL document CHEMBL4513151, “CO-ADD screening of Institut Català d'Investigació Química (Spain) compounds”.

SMILES strings stand for the structures. Where “and” joins values, the source holds several entries; their conditions need not be identical. Equal values may be shown once. Some of the results follow. Entries with a potency or affinity are not part of this list.

The subject of this assay is Acinetobacter baumannii. To be noted: Concentration 32 ug.mL-1, ASSAY_TEST Inhibition of Bacterial Growth, detection method Absorption (OD600), MEDIA CAMHB, plate type 384well, NBS, CORNING #3640, time 18 hr.

Turning to `C=C1CC(C(=O)OC)(C(=O)OC)C[C@@H]1[C@H](c1ccccc1)n1ccc2ccccc21`, the Inhibition was determined as 7.23%.

`C[C@]12CC[C@@](c3ccccc3)(O1)[C@H]1C=C[C@H](OC(=O)c3ccccc3)[C@H]12`: the Inhibition (32 ug/mL) is 4.56% and -1.84%.

`C[C@]12CC[C@@](C3CCCC3)(O1)[C@H]1C=C[C@H](OC(=O)c3ccccc3)[C@H]12`: the Inhibition was 5.62%.

For the compound `C[C@@H]1CC(=O)C=C2C(=O)[C@@H]3[C@@H](C3(C)C)[C@]21C`, the Inhibition is reported as 9.25%.

With `C[C@]12CC[C@@](c3ccc4ccccc4c3)(O1)[C@H]1C=C[C@H](OC(=O)c3ccccc3)[C@H]12`, the Inhibition was -6.23%.

`C[C@]12CC[C@@](C3CC3)(O1)[C@H]1C=C[C@H](OC(=O)c3ccccc3)[C@H]12`: the Inhibition (32 ug/mL) was 2.05% and -3.29%.

Take `C=C1CC(COC)(COC)C[C@@H]1[C@@H](Nc1ccc(Br)cc1)c1ccccc1`: the Inhibition is recorded as -7.79%.

As to `C=C1CC2(COC(C)(C)OC2)C[C@@H]1[C@@H](Nc1ccc(Br)cc1)c1ccccc1`, the Inhibition is given as 4.44%.

For the compound `C=C1CC(COCc2ccc(OC)cc2)(COCc2ccc(OC)cc2)C[C@@H]1[C@@H](Nc1ccc(Br)cc1)c1ccccc1`, the Inhibition is reported as -2.79%.

Regarding `C[C@]12CC[C@@H](O1)[C@H]1C=C[C@H](OC(=O)c3ccccc3)[C@H]12`, the Inhibition is reported as 9.79%.

As to `C=C1CC(C(=O)OC)(C(=O)OC)C[C@@H]1[C@@H](NS(=O)(=O)c1ccc(C)cc1)c1ccccc1`, the Inhibition stood at 5.82%.

For `C[C@]12CC[C@@](c3ccc(C(F)(F)F)cc3)(O1)[C@H]1C=C[C@H](OC(=O)c3ccccc3)[C@H]12`, under “32 ug/mL”, the Inhibition was 1.01% and 0.68%.

`C[C@]12CC[C@@](C)(O1)[C@H]1C=C[C@H](OC(=O)c3ccccc3)[C@H]12`: the Inhibition was determined as 3.33%.

`C=C1CC(C(=O)OC)(C(=O)OC)C[C@@H]1[C@H](c1ccccc1)n1ccc2ccc(Cl)cc21`: the Inhibition is -2.01%.
